The values below come from doi:10.1101/2022.08.01.502312.

Results are given in words; binding and its absence hold for the method and conditions named.

For experiment [1], the target named is Human FSHR (residues 18-695) with the constitutively active mutation S273I (human) (UniProt P23945). Nature of the experiment: cryo-EM structure.
The target of experiment [2] is T1, Human FSHR (residues 18-695), wild type (human), P23945.
T1 chain: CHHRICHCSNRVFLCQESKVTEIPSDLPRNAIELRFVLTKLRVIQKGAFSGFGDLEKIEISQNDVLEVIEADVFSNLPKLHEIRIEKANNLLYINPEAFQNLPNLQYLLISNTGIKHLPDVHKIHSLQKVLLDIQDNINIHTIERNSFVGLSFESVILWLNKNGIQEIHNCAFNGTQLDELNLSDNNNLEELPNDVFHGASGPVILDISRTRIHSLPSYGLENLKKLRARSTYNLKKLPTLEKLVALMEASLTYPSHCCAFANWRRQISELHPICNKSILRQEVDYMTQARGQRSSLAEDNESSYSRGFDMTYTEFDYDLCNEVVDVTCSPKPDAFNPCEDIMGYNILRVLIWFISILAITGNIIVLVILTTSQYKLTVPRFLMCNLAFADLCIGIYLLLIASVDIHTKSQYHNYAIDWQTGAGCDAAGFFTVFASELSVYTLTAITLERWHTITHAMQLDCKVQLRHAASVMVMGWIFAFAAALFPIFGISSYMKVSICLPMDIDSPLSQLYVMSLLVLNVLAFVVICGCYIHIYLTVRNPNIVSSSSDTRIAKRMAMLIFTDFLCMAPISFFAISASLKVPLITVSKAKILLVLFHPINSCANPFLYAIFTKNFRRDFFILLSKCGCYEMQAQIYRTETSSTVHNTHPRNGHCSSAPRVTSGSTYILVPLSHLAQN
Nature of the experiment: cryo-EM structure. The conditions noted are these: remark: other sources report otherwise.

For the molecule “Human FSHR (residues 18-695) with the constitutively active mutation S273I (from UniProt P23945 18-695) (receptor)”, in experiment [1], the binding entry is on record as “no binding”.

B1: Human FSHR (residues 18-695), wild type, P23945 18-695 (receptor)
chain: CHHRICHCSNRVFLCQESKVTEIPSDLPRNAIELRFVLTKLRVIQKGAFSGFGDLEKIEISQNDVLEVIEADVFSNLPKLHEIRIEKANNLLYINPEAFQNLPNLQYLLISNTGIKHLPDVHKIHSLQKVLLDIQDNINIHTIERNSFVGLSFESVILWLNKNGIQEIHNCAFNGTQLDELNLSDNNNLEELPNDVFHGASGPVILDISRTRIHSLPSYGLENLKKLRARSTYNLKKLPTLEKLVALMEASLTYPSHCCAFANWRRQISELHPICNKSILRQEVDYMTQARGQRSSLAEDNESSYSRGFDMTYTEFDYDLCNEVVDVTCSPKPDAFNPCEDIMGYNILRVLIWFISILAITGNIIVLVILTTSQYKLTVPRFLMCNLAFADLCIGIYLLLIASVDIHTKSQYHNYAIDWQTGAGCDAAGFFTVFASELSVYTLTAITLERWHTITHAMQLDCKVQLRHAASVMVMGWIFAFAAALFPIFGISSYMKVSICLPMDIDSPLSQLYVMSLLVLNVLAFVVICGCYIHIYLTVRNPNIVSSSSDTRIAKRMAMLIFTDFLCMAPISFFAISASLKVPLITVSKAKILLVLFHPINSCANPFLYAIFTKNFRRDFFILLSKCGCYEMQAQIYRTETSSTVHNTHPRNGHCSSAPRVTSGSTYILVPLSHLAQN
For B1, the binding result in experiment [2] is recorded as “no binding”.
